# Data reported in the supplement of paper PMC10338343.
# ± gives the standard deviation. The list shows a part of the results. The uncertainty is large for many entries.
# System: EfPiwi piRISC loaded with L1MC piRNA (26 nt)
# Assay: pre-steady-state target cleavage rate (min^-1); guide: L1MC piRNA 5'p-UAACUAAAUACUAUGCAAGCUGUAGG; MIWI and MILI are mouse PIWI proteins and EfPiwi is from a freshwater sponge; tags in brackets are library labels; higher = faster piRNA-guided slicing of the target
# Conditions: auxiliary factor: 500 nM Ephydatia muelleri Gtsf1
# Method: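 Cleave-'n-Seq: a library of target RNAs (target site in constant flanks) at […] was incubated with 1 nM active freshwater sponge Ephydatia fluviatilis Piwi piRISC (synthetic 5'-monophosphorylated piRNA guide) with or without 500 nM EmGtsf1 at 33 °C for 1 min to 16 h. Uncleaved targets were sequenced and the pooled three trials fitted to a burst-and-steady-state model to give the pre-steady-state cleavage rate (min^-1). Sequence is the target site only. Fits with R² ≤ 0 are excluded.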
row,Sequence,pre-steady-state target cleavage rate
1,UCCUGCUUCAGCUUGCAUUGUAUUUAGUUA,0.0233 ± 0.0065
2,UCCUGGAUGUCGAUGCAUAGUAUUAAGUAA,0.000774 ± 0.0089
3,UCCUGGAUGUCCUUGCAUAGUAAAAAGUUA,0.00028 ± 0.011
4,UCCUGGAUCAGCUUGCAUAGUGAUUUAGUUA,0.000282 ± 0.028
5,UCCUGGUACAGCUUGGUUAGUAUUUAGUUA,0.00478 ± 0.0032
6,UCCUGGAUGAUGCUUGCAUAGUAUUUAGUUA,0.0738 ± 0.022
7,UCCUCCUACAGCUUGCUUAGUAUUUAGAAA,0.00569 ± 0.0027
8,UCCUGGAACAGCUUGCAUAGUAUUUUAGUUA,0.0192 ± 0.0054
9,UCCUGGAUGUGCUUCCAUAGUAUUUAGAAA,0.00625 ± 0.0039
10,UCCUCCUACAGCUUCCAUUGUAUUUAGUUA,0.00393 ± 0.0019
11,UCCUGGAACAGCUUGCAUAGUUAUUUAGUUA,0.00185 ± 0.0026
12,UCCUGCUACAGCUUGCAUUGAAUUUAGUUA,0.000552 ± 0.0067
13,UCCUGGAACAGCUUGCAUAGAUAUUUAGUUA,0.000632 ± 0.0068
14,UCCUGCUACACCUUGCUUAGUAUUUAGUUA,0.00903 ± 0.0035
15,UCCUGGAACAGCUUGCAUAGUAUGUUAGUUA,0.00812 ± 0.0028
16,UCCUGGAUGAGCUUGCAGAGUAUUUAGUUA,0.00252 ± 0.0031
17,UCCUGGAUCAGCUUCCAUAGUAUUUAGAUA,0.00231 ± 0.0018
18,UCCUGGUACAGCUAGCUUAGUAUUUAGUUA,0.00544 ± 0.0027
19,UCCUGGUACAGCUUCCAUAGUAUAUAGUUA,0.000996 ± 0.004
20,UCCUGGAUGUCGAAGCUUAGUAUUUAGUUA,0.00107 ± 0.0037
21,UCCUGGAUGUCGUUGCUUACUAUUUAGUUA,0.000809 ± 0.0088
22,UCCUGGAUGUCCUUCCAUACUAUUUAGUUA,0.000689 ± 0.0067
23,UCCUGGAUGUCCUUGCAUAGUAUAUAGUUA,0.003 ± 0.004

# Same assay, conditions: auxiliary factor: none (no Gtsf1)
row,Sequence,pre-steady-state target cleavage rate
1,UCCUGCUUCAGCUUGCAUUGUAUUUAGUUA,0.00121 ± 0.0069
2,UCCUGGAUGUCGAUGCAUAGUAUUAAGUAA,0.000364 ± 0.016
3,UCCUGGAUGUCCUUGCAUAGUAAAAAGUUA,0.000375 ± 0.02
4,UCCUGGAUCAGCUUGCAUAGUGAUUUAGUUA,0.000294 ± 0.033
5,UCCUGGUACAGCUUGGUUAGUAUUUAGUUA,0.000494 ± 0.033
6,UCCUGGAACAGCUUGCAUAGUAUUUUAGUUA,0.000493 ± 0.033
7,UCCUGGAUGUGCUUCCAUAGUAUUUAGAAA,0.000431 ± 0.017
8,UCCUCCUACAGCUUCCAUUGUAUUUAGUUA,0.000524 ± 0.0091
9,UCCUGGAACAGCUUGCAUAGUUAUUUAGUUA,0.00148 ± 0.0076
10,UCCUGCUACAGCUUGCAUUGAAUUUAGUUA,0.00023 ± 0.023
11,UCCUGGAUGUCGUUGCAUAGUAUUAACUUA,0.000301 ± 0.022
12,UCCUGCUACACCUUGCUUAGUAUUUAGUUA,0.00103 ± 0.0089
13,UCCUGGAACAGCUUGCAUAGUAUGUUAGUUA,0.000243 ± 0.045
14,UCCUGGAUGAGCUUGCAGAGUAUUUAGUUA,0.000293 ± 0.039
15,UCCUGGUACAGCUAGCUUAGUAUUUAGUUA,0.00112 ± 0.0078
16,UCCUGGAUGUCCUUCCAUACUAUUUAGUUA,0.000108 ± 0.045
